Data published in patent US10822723.
No constants are given. Whether binding was seen depends on the method and setting. For some assays here: Binding seen in cells or lysates may run through a third protein. Some entries that bind do so weakly or less than the wild type.

By UniProt entry, the sequences of proteins in these tests, tags left out. Where a name states a change or a piece, a line headed by the entry shows the natural chain unless it says otherwise. Residues count along the entry.
UniProt O96013: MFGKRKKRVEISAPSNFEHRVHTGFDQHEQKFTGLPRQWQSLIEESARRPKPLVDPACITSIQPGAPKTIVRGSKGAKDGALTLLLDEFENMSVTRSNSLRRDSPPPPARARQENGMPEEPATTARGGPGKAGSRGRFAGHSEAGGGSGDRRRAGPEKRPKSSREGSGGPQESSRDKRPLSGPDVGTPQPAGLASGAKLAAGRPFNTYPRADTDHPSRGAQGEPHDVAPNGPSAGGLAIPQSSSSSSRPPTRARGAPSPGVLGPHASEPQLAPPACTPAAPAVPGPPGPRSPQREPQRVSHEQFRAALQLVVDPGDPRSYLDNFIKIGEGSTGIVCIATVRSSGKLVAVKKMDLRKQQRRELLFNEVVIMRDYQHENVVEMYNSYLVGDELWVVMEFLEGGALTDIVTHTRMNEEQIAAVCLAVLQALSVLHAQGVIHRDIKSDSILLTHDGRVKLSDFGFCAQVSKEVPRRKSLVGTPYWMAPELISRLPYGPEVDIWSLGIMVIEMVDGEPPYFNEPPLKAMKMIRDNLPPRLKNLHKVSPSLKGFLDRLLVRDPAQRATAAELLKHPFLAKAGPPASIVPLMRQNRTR
Flag-PAK4cat, catalytic domain of human PAK4 expressed in mammalian cells: residues 286-591 of O96013
UniProt Q96EL1, residues 166-203: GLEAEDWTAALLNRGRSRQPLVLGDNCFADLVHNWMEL
UniProt Q9NTI7: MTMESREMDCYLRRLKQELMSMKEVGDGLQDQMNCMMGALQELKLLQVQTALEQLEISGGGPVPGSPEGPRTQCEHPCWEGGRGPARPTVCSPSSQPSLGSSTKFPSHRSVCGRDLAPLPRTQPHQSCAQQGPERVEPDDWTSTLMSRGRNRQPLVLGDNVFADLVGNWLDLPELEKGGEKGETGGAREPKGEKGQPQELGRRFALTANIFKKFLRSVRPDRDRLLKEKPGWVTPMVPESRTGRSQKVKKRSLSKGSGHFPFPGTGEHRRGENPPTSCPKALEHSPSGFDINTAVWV

Experiments:
[1] = target: Flag-PAK4cat, catalytic domain of human PAK4 expressed in mammalian cells (human) (UniProt O96013); experiment: co-expression with PAK4cat in mammalian cells, formation of co-crystals
[2] = target: FLAG-tagged wild type PAK4 (human) (UniProt O96013); experiment: co-immunoprecipitation

binding [1] | binding [2] | Substance
binds |  | HA-tagged Inka1 (166-203) (from UniProt Q96EL1 166-203)
 | binds | Inka2 (from UniProt Q9NTI7 1-297)
